Where “and” joins values, the source holds several entries; their conditions need not be identical. Equal entries are not always repeated. For at least one compound, name, drawing or mass did not settle the structure.
Key:
[1] = Spectral characteristics: molar extinction coefficient and specific absorbance (UV spectrophotometry in ethyl acetate); type: physicochemical; settings: 10 μg/ml; for Maximum molar extinction coefficient UVA / Maximum specific absorbance UVA: UVA band; for Maximum molar extinction coefficient UVB / Maximum specific absorbance UVB: UVB band; for Maximum specific absorbance UVA / Maximum specific absorbance UVB: A1cm^1%; for Wavelength of maximum molar extinction coefficient UVA / Wavelength of maximum molar extinction coefficient UVB / Wavelength of maximum specific absorbance UVA / Wavelength of maximum specific absorbance UVB: the 'at ...' part of the cell
Description: The calculation of the molar extinction coefficient (ε) is made from the Beer-Lambert law:
[formula] Wherein: • A=absorbance • I0=intensity of the incident light • I=intensity of the transmitted light • ε=molar extinction (or molar absorbance) coefficient in M^−1 cm^−1 • l=path length in cm • c=concentration in mol/l
The molar extinction coefficient can be expressed with respect to a given mass of the product. It thus makes it possible to be able to compare the coefficients of extinction between products for the same given quantity. This quantity is 1% by weight. The molar extinction coefficient thus becomes the specific absorbance (A1cm^1%).
It is expressed as follows:
[formula] Wherein: • A1cm^1%=specific absorbance • ε=molar extinction coefficient • M=molar mass
The spectral characteristics of the compounds in comparison with commercial filters at a concentration of 10 μg/ml are summarized in tables 2-1 and 2-2.
Procedure: The products are dissolved in ethyl acetate to a concentration of 10 μg/ml. The spectra are measured using a dual-beam spectrophotometer (Varian CARY 50 Scan) between 290 nm and 400 nm.

[2] = In vitro SPF measurement in a chemical solvent (Diffey and Robson); settings: ethyl acetate, 10 μg/ml, transmittance 290-400 nm
Protocol: The in vitro methods of determining the protective effectiveness of sun products consist of measuring by transmission spectrophotometry the absorption spectrum of the filter in solution or of the product applied on a substrate with the aim of simulating the surface of the skin. The effectiveness against UVB and/or UVA rays, or the effect on the cutaneous response, are then determined by calculation, taking into account or not the UV radiation action spectrum for the damage considered.
The Sayre/Agin and Diffey/Robson method, used since the 1990s, involves a comparative measurement, with the aid of an integrating-sphere spectroradiometer, of the transition from 290 nm to 400 nm in 5 nm steps, the sample being subjected to UV radiation from a stable known source covering the whole of the UV spectrum (unfiltered xenon).
Diffey and Robson evaluate the erythemal response by the following calculation:
[formula] E(λ)=spectral irradiation in W(m-^2) (nm^−1) at 40° N sun at 20° zenith angle • ε=erythematous capacity
[formula] N(λ)=number of values for a given wavelength
The Diffey and Robson formula makes it possible to determine SPF from the measurement of transmittance between 290 nm and 400 nm. Transmittance is measured in solution in ethyl acetate at a concentration of 10 μg/ml using a UV-visible spectrophotometer (Varian CARY 50 Scan).
[formula] T(λ)=transmittance at wavelength λ

[3] = Spectral distribution in UVA and UVB, 290 nm to 400 nm; type: physicochemical; settings: for Spectral distribution (UV bands absorbed): absorption spectra, FIGS. 1-3; for Absorption peaks: range from 290 nm to 400 nm
Description: The products tested are classified according to spectral distribution in UVA and UVB in a range from 290 nm to 400 nm. It is possible to differentiate them according to their spectral distribution: Products with a narrow spectrum: • Products absorbing in the range between 280 nm and 320 nm (UVB) • Products absorbing in the range between 320 nm and 400 nm (UVA) Products with a broad spectrum: • Products absorbing in UVB (280-320 nm) and UVA-II […] • Products covering UVB and UVA (280-400 nm).

Row | Compound | Maximum molar extinction coefficient UVA [1] | Maximum molar extinction coefficient UVB [1] | Maximum specific absorbance UVA [1] | Maximum specific absorbance UVB [1] | Wavelength of maximum molar extinction coefficient UVA [1] | Wavelength of maximum molar extinction coefficient UVB [1] | Wavelength of maximum specific absorbance UVA [1] | Wavelength of maximum specific absorbance UVB [1] | SPF [2] | Spectral distribution (UV bands absorbed) [3] | Absorption peaks [3]
1 | CCCCCC[C@H](C)Oc1ccc(-c2nnc(-c3ccc(-c4nnc(-c5ccc(O[C@@H](C)CCCCCC)cc5)c(-c5ccc(O[C@@H](C)CCCCCC)cc5)n4)cc3)nc2-c2ccc(O[C@@H](C)CCCCCC)cc2)cc1 [WP149, 1,4-bis[5,6-bis(4,1-methylheptyloxyphenyl)-1,2,4-triazine-3-yl]benzene] | 59000 M⁻¹ cm⁻¹ | 56000 M⁻¹ cm⁻¹ | 560 | 532 | at 355 nm | at 315 nm | at 355 nm | 315 nm | 74.1 | absorb in UVB and UVA | 315 nm and 355 nm
2 | CCCCC(CC)COc1ccc(-c2nnc(-c3ccc(-c4nnc(-c5ccc(OCC(CC)CCCC)cc5)c(-c5ccc(OCC(CC)CCCC)cc5)n4)cc3)nc2-c2ccc(OCC(CC)CCCC)cc2)cc1 (stereo not drawn) [WP144, 1,4-bis[5,6-bis(4,2-ethylhexyloxyphenyl)-1,2,4-triazine-3-yl]benzene] | 64000 M⁻¹ cm⁻¹ | 66000 M⁻¹ cm⁻¹ | 607 | 626 | at 355 nm | at 315 nm | at 355 nm | 315 nm |  | absorb in UVB and UVA | 315 nm and 355 nm
